This assay concerns the target LMPTP-A (Low Molecular Weight Protein Tyrosine Phosphatase-A) enzyme (Homo sapiens (Human), UniProt P24666). The experiment in a line: LMPTP primary screening / LMPTP (OMFP) enzyme inhibition assay, fluorescence intensity. Format: biochemical. The note with it: read-out: LMPTP (OMFP) (IC50); Table 2 quinoline series; S sample (synthesized de novo).

By UniProt entry, the sequences of proteins in these tests, tags left out.
UniProt P24666, whole entry: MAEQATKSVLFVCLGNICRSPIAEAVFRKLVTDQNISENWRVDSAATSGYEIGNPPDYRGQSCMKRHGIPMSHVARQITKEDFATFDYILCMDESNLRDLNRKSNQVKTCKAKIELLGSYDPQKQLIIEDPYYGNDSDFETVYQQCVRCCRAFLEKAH

The source holds more than one record for some entries. This list holds those alone. An entry can have further records. Values given together do not match, cause unknown; they may come from other doses, times, organisms or constructs than stated.

Turning to `c1ccc(-c2cc(NC3CCCC3)c3ccccc3n2)cc1`, the IC50 is 10 µM and 21.1 µM.

Source of the values: patent US10626094B2 (La Jolla Institute of Allergy & Immunology, priority 2014, dated 2020).
